# Data: patent US9133207B2, “Tetrandrine derivatives with substituted 5-carbon, preparation method and use thereof” (Hangzhou Bensheng Pharmaceutical Co., Ltd., priority 2011, dated 2015)
# For some assays here: At least one compound was matched to its structure with a doubt left. Some of these results come from one statement about several compounds together.
# Legend:
# [1] = system: RPMI8226 (multiple myeloma); experiment: Multiple myeloma cell growth inhibition, MTT, 72 h (Example 6); format: cell-based, human; conditions: compared with tetrandrine
# Protocol: Multiple myeloma and lymphoma cell lines: RPMI8226 (multiple myeloma), purchased from Fuxiang Bio-tech Co. Ltd., Shanghai, China.
# (§1) Reagents: the same as in Example 5.
# Obtaining 6000 well-growing leukemia cells and inoculating them into wells of a 96-well cell culture plate. The culture medium is a 1640 cell culture medium containing 10% fetal bovine serum. After adding the tetrandrine derivatives of different concentrations and mixing uniformly, placing the plate in a carbon dioxide cell incubator (5% CO2) at 37° C. and incubated for 72 hours. Then the viable cell concentration is determined by the MTT method.
# [2] = system: MGC 803 (human gastric cancer cell); experiment: Solid tumor cell growth inhibition, MTT, 72 h (Example 7); format: cell-based; conditions: compared with tetrandrine
# Protocol: (§2) Human solid tumor cell lines: Hep-2 (laryngeal carcinoma), A549 (human lung cancer), CaES-17 (esophageal cancer cell), PC-3 (prostate cancer), CNE (nasopharyngeal carcinoma cell) and SK-OV-3 (ovarian cancer cell), all of which are purchased from China Center For Type Culture Collection; RKO (human colon adenocarcinoma cell), MGC 803 (human gastric cancer cell), MG63 (osteosarcoma), and U87 MG (malignant glioma cell), all of which are purchased from Fuxiang Bio-tech Co. Ltd., Shanghai, China; PANC-1 (pancreatic cancer), Huh? (human liver cancer cell), Becap37 (human breast cancer cell), and Hela (human cervical cancer cell), all of which are donated by Cancer Research Institute of Zhejiang University, China.
# as §1
# (§3) Obtaining 4000 well-growing human solid tumor cells and inoculating them into wells of a 96-well cell culture plate. The culture medium is DMEM High Glucose cell culture medium containing 10% fetal bovine serum. The plate is placed in a carbon dioxide cell incubator (5% CO2) at 37° C. and incubated for 24 hours. After been added with tetrandrine derivatives of different concentration and mixing uniformly, the plate is placed in a carbon dioxide cell incubator (5% CO2) at 37° C. and incubated for 72 hours. Then the viable cell concentration is determined by the MTT method and the cell viability (%) after drug treatment is calculated. In this experiment, the cell viability of control group (not treated with any compound) is set as 100%.
# [3] = system: U87 MG (malignant glioma cell); experiment: as above; format: cell-based, human; conditions: compared with tetrandrine
# Protocol: as §2, §1, §3
# [4] = system: SK-OV-3 (ovarian cancer cell); experiment: as above; format: cell-based, human; conditions: compared with tetrandrine
# Protocol: as §2, §1, §3
# [5] = system: drug-resistant lung cancer cell GLC-82/ADR; conditions: after the application of tetrandrine; resistance to adriamycin; cited from earlier work
# [6] = system: human esophageal cancer TE1 cells; conditions: drug concentration of 0.5 μg/mL; cited from earlier work
SMILES,anti-MGC 803 activity increase over tetrandrine [2],anti-U87 MG activity increase over tetrandrine [3],also measured
COc1ccc2cc1Oc1ccc(cc1)C[C@H]1c3cc(c(OC)cc3CCN1C)Oc1c(OC)c(OC)c(CN3CCCC3)c3c1[C@H](C2)N(C)CC3 [BS-TE-305],–,–,anti-RPMI8226 activity increase over tetrandrine [1]: more than 60 fold
COc1ccc2cc1Oc1ccc(cc1)C[C@H]1c3cc(c(OC)cc3CCN1C)Oc1c(OC)c(OC)c(CN(C)[C@@H](C)c3ccccc3)c3c1[C@H](C2)N(C)CC3 [BS-TE-317],more than 2 fold,–,–
COc1ccc2cc1Oc1ccc(cc1)C[C@H]1c3cc(c(OC)cc3CCN1C)Oc1c(OC)c(OC)c(CN3CCN(C(C)C)CC3)c3c1[C@H](C2)N(C)CC3 [BS-TE-333],more than 2 fold,–,–
CCN1CCN(Cc2c3c4c(c(OC)c2OC)Oc2cc5c(cc2OC)CCN(C)[C@H]5Cc2ccc(cc2)Oc2cc(ccc2OC)C[C@@H]4N(C)CC3)CC1 [BS-TE-342],–,more than 2 fold,anti-RPMI8226 activity increase over tetrandrine [1]: more than 60 fold
COc1ccc2cc1Oc1ccc(cc1)C[C@H]1c3cc(c(OC)cc3CCN1C)Oc1c(OC)c(OC)c(CN3CCCC(C)C3)c3c1[C@H](C2)N(C)CC3 (some centres unmarked) [BS-TE-346],more than 2 fold,–,–
COc1ccc2cc1Oc1ccc(cc1)C[C@H]1c3cc(c(OC)cc3CCN1C)Oc1c(OC)c(OC)c(CNCc3ccco3)c3c1[C@H](C2)N(C)CC3 [BS-TE-350],more than 2 fold,more than 2 fold,–
COc1ccc2cc1Oc1ccc(cc1)C[C@H]1c3cc(c(OC)cc3CCN1C)Oc1c(OC)c(OC)c(CN3CCCC(CO)C3)c3c1[C@H](C2)N(C)CC3 (some centres unmarked) [BS-TE-351],–,more than 2 fold,–
COc1ccc2cc1Oc1ccc(cc1)C[C@H]1c3cc(c(OC)cc3CCN1C)Oc1c(OC)c(OC)c(CN3CCC(N(C)C)CC3)c3c1[C@H](C2)N(C)CC3 [BS-TE-354],more than 2 fold,more than 2 fold,anti-SK-OV-3 activity increase over tetrandrine [4]: more than 6 fold
COc1ccc2cc1Oc1ccc(cc1)C[C@H]1c3cc(c(OC)cc3CCN1C)Oc1c(OC)c(OC)c(CN3CCCCC3)c3c1[C@H](C2)N(C)CC3 [BS-TE-355],more than 2 fold,–,–
COc1ccc2cc1Oc1ccc(cc1)C[C@H]1c3cc(c(OC)cc3CCN1C)Oc1c(OC)c(OC)c(CNCc3cccs3)c3c1[C@H](C2)N(C)CC3 [BS-TE-359],more than 2 fold,more than 2 fold,–
COc1ccc2cc1Oc1ccc(cc1)C[C@H]1c3cc(c(OC)cc3CCN1C)Oc1c(OC)c(OC)c(CN3CCN(C)CC3)c3c1[C@H](C2)N(C)CC3 [BS-TE-360],more than 2 fold,more than 2 fold,–
COc1ccc2cc1Oc1ccc(cc1)C[C@H]1c3cc(c(OC)cc3CCN1C)Oc1c(OC)c(OC)c(COCCOc3ccccc3)c3c1[C@H](C2)N(C)CC3 [BS-TE-402],–,–,anti-SK-OV-3 activity increase over tetrandrine [4]: more than 6 fold
"COc1ccc2cc1Oc1ccc(cc1)C[C@H]1c3cc(c(OC)cc3CCN1C)Oc1c(OC)c(OC)cc3c1[C@H](C2)N(C)CC3 [TTD, 6,6′,7,12-tetramethoxy-2,2′dimethylberbamine, reference compound]",–,–,drug-resistance index [5]: 1.89; maximum radiosensitization [6]: 1.62
